Reference: the supplement of paper PMC3682954
Where a name gives a salt, the structure may show the parent alone. ± gives the standard deviation of the averaged measurements. The list shows a part of the results. Many values rest on one well or one pass, so single values are uncertain.

System: RAW 264.7
Experiment: cell viability (MTT) relative to vehicle control; higher = more viable cells
Settings: stimulus: HMGB1 5 ug/ml, 18 h
[1] = compound concentration: 1 ug/ml

**Q.** With `CN/C(=N\c1ccc(C2=NNC(=O)CC2C)cc1)NC#N` (stereo unspecified) [Siguazodan] as the compound, how does the cell viability (compound concentration: 3 uM) read?
**A.** 98.2%

**Q.** With `COc1ccccc1N1CCN(CCCNc2cc(=O)n(C)c(=O)n2C)CC1` [Urapidil hydrochloride] as the compound, how does the cell viability (compound concentration: 3 uM) read?
**A.** 110 ± 5.5%

**Q.** With `COc1ccccc1N1CCN(CCCNc2cc(=O)n(C)c(=O)n2C)CC1` as the compound, how does the cell viability (compound concentration: 3 uM) read?
**A.** 102 ± 6.7%

**Q.** Which cell viability (compound concentration: 3 uM) does the source give for `CCN(CC)Cc1cc(Nc2ccnc3cc(Cl)ccc23)ccc1O` here?
**A.** 95.8%

**Q.** Which cell viability (compound concentration: 3 uM) does the source give for `CCN(CC)Cc1cc(Nc2ccnc3cc(Cl)ccc23)ccc1O` [Amodiaquin dihydrochloride dihydrate] here?
**A.** 98.4%

**Q.** For `COCC(=O)O[C@]1(CCN(C)CCCc2nc3ccccc3[nH]2)CCc2cc(F)ccc2[C@@H]1C(C)C` [Mibefradil dihydrochloride], which cell viability (compound concentration: 3 uM) is on record?
**A.** 105%

**Q.** How did the cell viability (compound concentration: 3 uM) turn out when `CCC(=O)OCC(=O)[C@@]1(OC(=O)CC)[C@@H](C)C[C@H]2[C@@H]3CCC4=CC(=O)C=C[C@]4(C)[C@@]3(Cl)[C@@H](O)C[C@@]21C` [Beclomethasone dipropionate] was run?
**A.** 87.2%

**Q.** Which cell viability (compound concentration: 3 uM) does the source give for `CCC(=O)OCC(=O)[C@@]1(OC(=O)CC)[C@@H](C)C[C@H]2[C@@H]3CCC4=CC(=O)C=C[C@]4(C)[C@@]3(Cl)[C@@H](O)C[C@@]21C` here?
**A.** 112%

**Q.** Which cell viability (compound concentration: 3 uM) does the source give for `O=C(/C=C/C=C/c1ccc2c(c1)OCO2)N1CCCCC1` here?
**A.** 99.6%

**Q.** Which cell viability (compound concentration: 3 uM) does the source give for `O=c1c2ccccc2nc2n1CCc1c-2[nH]c2ccccc12` [Rutaecarpine] here?
**A.** 97.5%

**Q.** `CCCCc1nc(Cl)c(CO)n1Cc1ccc(-c2ccccc2-c2nnn[nH]2)cc1` was tested. Which cell viability (compound concentration: 3 uM) did it give?
**A.** 107%

**Q.** `CCCCc1nc(Cl)c(CO)n1Cc1ccc(-c2ccccc2-c2nnn[nH]2)cc1` [Losartan potassium] was tested. Which cell viability (compound concentration: 3 uM) did it give?
**A.** 99.8%

**Q.** `CCCCc1nc(Cl)c(CO)n1Cc1ccc(-c2ccccc2-c2nnn[nH]2)cc1` [LOSARTAN Potassium] was tested. Which cell viability (compound concentration: 3 uM) did it give?
**A.** 100%

**Q.** Which cell viability (compound concentration: 3 uM) does the source give for `CCCCc1nc(Cl)c(CO)n1Cc1ccc(-c2ccccc2-c2nnn[nH]2)cc1` [Losartan] here?
**A.** 104%

**Q.** How did the cell viability (compound concentration: 3 uM) turn out when `CC1(C)S[C@@H]2[C@H](NC(=O)Cc3ccccc3)C(=O)N2[C@H]1C(=O)O` [Benzylpenicillin sodium] was run?
**A.** 94.6%

**Q.** With `CC1(C)S[C@@H]2[C@H](NC(=O)Cc3ccccc3)C(=O)N2[C@H]1C(=O)O` as the compound, how does the cell viability (compound concentration: 3 uM) read?
**A.** 108%

**Q.** With `CC1(C)S[C@@H]2[C@H](NC(=O)Cc3ccccc3)C(=O)N2[C@H]1C(=O)O` [Benzathine benzylpenicillin] as the compound, how does the cell viability (compound concentration: 3 uM) read?
**A.** 94.2%

**Q.** How did the cell viability (compound concentration: 3 uM) turn out when `C=CCCCCCCCCC(=O)O` was run?
**A.** 103%

**Q.** Which cell viability [1] does the source give for `COc1c(O)cc2oc3cc(O)c(CC=C(C)C)c(O)c3c(=O)c2c1CC=C(C)C` [Mangostin] here?
**A.** 98.5%

**Q.** `Clc1ccc(C(Cn2ccnc2)OCc2csc3c(Cl)cccc23)c(Cl)c1` (stereo unspecified) [Sertaconazole] was tested. Which cell viability (compound concentration: 3 uM) did it give?
**A.** 120%

**Q.** With `Clc1ccc(C(Cn2ccnc2)OCc2csc3c(Cl)cccc23)c(Cl)c1` (stereo unspecified) [Sertaconazole nitrate] as the compound, how does the cell viability (compound concentration: 3 uM) read?
**A.** 92.3%

**Q.** How did the cell viability (compound concentration: 3 uM) turn out when `CCOc1ccc(NC(=O)CC(C)O)cc1` (stereo unspecified) was run?
**A.** 103%

**Q.** `CC(C)(C)NCC(O)c1ccc(O)c(CO)c1` (racemic) was tested. Which cell viability (compound concentration: 3 uM) did it give?
**A.** 100%

**Q.** `CC(=O)OCC1=C(C(=O)O)N2C(=O)[C@@H](NC(=O)Cc3cccs3)[C@H]2SC1` was tested. Which cell viability (compound concentration: 3 uM) did it give?
**A.** 106%

**Q.** How did the cell viability (compound concentration: 3 uM) turn out when `CC(=O)OCC1=C(C(=O)O)N2C(=O)[C@@H](NC(=O)Cc3cccs3)[C@H]2SC1` [Cephalothin sodium] was run?
**A.** 102%

**Q.** Which cell viability (compound concentration: 3 uM) does the source give for `CC(=O)OCC1=C(C(=O)O)N2C(=O)[C@@H](NC(=O)Cc3cccs3)[C@H]2SC1` [Cephalothin sodium salt] here?
**A.** 106%

**Q.** How did the cell viability (compound concentration: 3 uM) turn out when `Cc1nc2n(c(=O)c1CCN1CCC(c3noc4cc(F)ccc34)CC1)CCCC2O` (stereo unspecified) [Paliperidone] was run?
**A.** 106%

**Q.** How did the cell viability (compound concentration: 3 uM) turn out when `CCN(CC)CCNC(=O)COc1ccc(OC)cc1` [Mefexamide hydrochloride] was run?
**A.** 104%

**Q.** `CCN(CC)CCNC(=O)COc1ccc(OC)cc1` was tested. Which cell viability (compound concentration: 3 uM) did it give?
**A.** 113%

**Q.** How did the cell viability (compound concentration: 3 uM) turn out when `O=C1NCCN1CCN1CCC(c2cn(-c3ccc(F)cc3)c3ccc(Cl)cc23)CC1` [Sertindole] was run?
**A.** 117%

**Q.** How did the cell viability [1] turn out when `CC1(C)CC[C@]2(C(=O)O)CC[C@]3(C)C(=CC[C@@H]4[C@@]5(C)CC[C@H](O)C(C)(C)[C@@H]5[C@H](O)C[C@]43C)[C@@H]2C1` [Sumaresinolic acid] was run?
**A.** 108%

**Q.** For `O=C1CCC(N2C(=O)c3ccccc3C2=O)C(=O)N1` (stereo unspecified) [Thalidomide], which cell viability (compound concentration: 3 uM) is on record?
**A.** 94.6 ± 5.9%

**Q.** `O=C1CCC(N2C(=O)c3ccccc3C2=O)C(=O)N1` (stereo unspecified) was tested. Which cell viability (compound concentration: 3 uM) did it give?
**A.** 97.8%

**Q.** With `CNCCCN1c2ccccc2CCc2ccccc21` [Desipramine hydrochloride] as the compound, how does the cell viability (compound concentration: 3 uM) read?
**A.** 97.8 ± 7.1%

**Q.** How did the cell viability (compound concentration: 3 uM) turn out when `CNCCCN1c2ccccc2CCc2ccccc21` was run?
**A.** 95.7%

**Q.** How did the cell viability (compound concentration: 3 uM) turn out when `Cc1ccsc1C(=CCCN1CCC[C@@H](C(=O)O)C1)c1sccc1C` was run?
**A.** 98.8%

**Q.** Which cell viability (compound concentration: 3 uM) does the source give for `CC[n+]1c(-c2ccccc2)c2cc(N)ccc2c2ccc(N)cc21` here?
**A.** 103%

**Q.** Which cell viability (compound concentration: 3 uM) does the source give for `O=C1OC(CN2CCOCC2)CN1/N=C/c1ccc([N+](=O)[O-])o1` (stereo unspecified) [Furaltadone hydrochloride] here?
**A.** 124%

**Q.** For `O=C1OC(CN2CCOCC2)CN1/N=C/c1ccc([N+](=O)[O-])o1` (stereo unspecified), which cell viability (compound concentration: 3 uM) is on record?
**A.** 108%

**Q.** How did the cell viability (compound concentration: 3 uM) turn out when `C[C@H]1[C@H](OC(=O)CCC(=O)O)O[C@@H]2O[C@@]3(C)CC[C@H]4[C@H](C)CC[C@@H]1[C@@]24OO3` was run?
**A.** 73.6%

**Q.** How did the cell viability (compound concentration: 3 uM) turn out when `C[C@H]1[C@H](OC(=O)CCC(=O)O)O[C@@H]2O[C@@]3(C)CC[C@H]4[C@H](C)CC[C@@H]1[C@@]24OO3` [Artesunate] was run?
**A.** 69.3%
